Assay results from US20130205416A1 (priority 2010, published 2013).
At least one peptide structure holds a part that was inferred or is arguable (an end, a ring closure or a residue). Ends that are not written are not given here.

Experiments:
A/WSN/33 H1N1 virus [1] = format: cell-based, Influenza A virus
[2] = system: PR8/Eng09 H1N1 virus (A/England/195/09); format: cell-based, Influenza A virus
[3] = system: PR8/Vic H3N2 virus (A/Victoria/3/75); format: cell-based, Influenza A virus
[4] = system: PR8/Viet H5N1 virus (A/Vietnam/1194/04); format: cell-based, Influenza A virus
A/WSN/33 influenza virus = system: A/WSN/33 influenza virus; set-up: species or system BALB/c mice; conditions: mouse
A/WSN/33 H1N1 virus [5] = format: cell-based, Influenza A virus; remark: listed apart in the source

## WLVFFVIAYFAR [FP2, WLVFFVIAYFAR]
A/WSN/33 H1N1 virus [1]
  knockdown: complete knockdown
  knockdown of plaque formation: 100%
[2]
  knockdown: 66%
[3]
  knockdown: 75%
[4]
  knockdown: 65%
A/WSN/33 influenza virus
  inhibition of lung viral titres in vivo: effective
A/WSN/33 H1N1 virus [5]
  reduction in virus yield: 97%
